Like-named read-outs stand apart in the source and are kept apart here.
Test system: I2 binding sites

In the case of `c1ccc2oc(C3=NCCN3)cc2c1` [[^3 H]BFI, 2-(2-benzofuranyl)-2-imidazoline], the “[^3 H]BFI bound in human kidney” value (absence of TCP) is reported as 772±96 fmol/mg protein and the “[^3 H]BFI bound in human kidney” value (presence of 1 μM TCP) is reported as 6741±714 fmol/mg protein.
